# Measurements reported in PubChem BioAssay AID1347423 (Functional Genomics Laboratory (NCATS/FGL), 2020).
# Hit rate of the full screen: of about 52,000 sequences, about 210 (0.4%) were called active.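 The calls were made as follows: active = gene whose silencing raises cell survival under the drug, median off-target-corrected z-score across its silencing RNAs 2 or more; inactive = the rest.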 The list shows a part of the results.
# Test: Resistance to Poly (ADP-Ribose) Polymerase inhibitor: Gene Identification via Genome-wide siRNA Screen
# Settings: mouse BRCA2 R2336H ES cells, olaparib, CellTiter-Glo viability; hits give high values
# Summary of the method: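 Genome-wide siRNA screen (3 siRNAs/gene, 20 nM) in mouse ES cells carrying hypomorphic BRCA2 R2336H; olaparib 500 nM added 48 h post-transfection, CellTiter-Glo viability 72 h later. Normalized to plate-median negative control; MAD z-scores, gene median, seed-adjusted.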
row,Sequence,z-score
1,GCAGGUAAAGGCUCUUAUUTT against Rcbtb1,inactive: -0.0395
2,GGAAGAAAAAACCUUCUGGTT against 1700112P19Rik,inactive: -0.0914
3,GGUACCCAUAUGCAGAGGUTT against A830039N20Rik,inactive: -0.45
4,CCACUUGUAGUUACAAAACTT against Odag,inactive: -0.673
5,GCUUGUUCCGGGAAUUAUUTT against 1200009B18Rik,inactive: 0.192
6,GGGUUUACAAACUACACAUTT against E130112H22Rik,inactive: -0.547
7,GGUUUCCAGUGCAUACUUUTT against Taf1b,inactive: -0.487
8,GGCUUUCUUUGCCAUGACCTT against Copg,inactive: -0.491
9,GGAAAAUCCCUUGGUGAAATT against Slc5a11,inactive: 2.74
10,GGAUCCUCACCAAGAUUACTT against Mrps22,inactive: 1.17
11,GGUCAUUAGUUAUUCCUACTT against Olfr600,inactive: -0.776
12,GGUCACACUUUCUUUGGAATT against D8Ertd325e,inactive: -0.243
13,CCCUGGCAAAUAUCACUGCTT against Dapk2,inactive: 0.678
14,GGGUGUACAUUGAAAUUAATT against Epha4,inactive: 1.05
15,GGCUGUCAUUGAGUUUGAGTT against Klrc2,inactive: 0.947
16,CCUACGCUAUGCCAUAGACTT against Apobec3,inactive: 1.37
17,GGGAUAGGAAACAUACCAATT against Ptk6,inactive: -0.561
18,GGUUGAUAAAGUUUGAGUGTT against 5730410E15Rik,inactive: 0.52
19,CCUAAACGUGCACAUUUUATT against 6330512M04Rik,inactive: 0.367
20,CCUUCUAAACACUUGACUUTT against Ugt2b5,inactive: 0.523
21,GGAAUUUGUCAAGUUGUAGTT against Pou4f2,inactive: -0.11
22,GGGCUUUCUUUAUUUUGUGTT against 9230112J07Rik,inactive: -0.593
23,GGAUCUGUCUACUUUUCCUTT against 0610007P06Rik,inactive: 0.258
24,GGUAGUUCUAUAGAUACUGTT against 2310015N21Rik,inactive: -0.836
25,GGUCUUUGAUGAAGAAGUGTT against 1700027N10Rik,inactive: 0.58
26,GGCUUCAUUUUAAUAGUGATT against Zdhhc21,inactive: -0.675

row,Sequence,z-score
1,GGAAGAUACUGUGGUUUAUTT against 6530406M24Rik,inactive: 0.22
2,GGUUUGCAUUGUCGGCCAUTT against Gls2,inactive: 0.391
3,GGGUUUUGUUUUCCUUCUUTT against Usp39,inactive: 2.51
4,GAAGUGUGCCAAGGACUGUTT against Mt3,inactive: -0.0923
5,GGUGGUUUGAAAAAAGUCATT against Mycbpap,inactive: -0.734
6,CGAGAAUAUGUGAGAGCUUTT against Gm83,inactive: -2.45
7,GGUCCAGGUGAUAAAUAUATT against 4921525H12,inactive: -0.687
8,GGUUGGAGAUCUCAUCUAUTT against Exosc3,inactive: -2.1
9,CCUGGUAGUCAGUUUUUGUTT against Lactb,inactive: 0.388
10,GGCCAAUUUCUUCACUUCUTT against 2410006F12Rik,inactive: -1.66
11,GCUUCUGAUAGAUCAUAAGTT against Aoc3,inactive: 0.408
12,GGUUGGAAACACAGCAAAATT against 2610528M18Rik,inactive: -0.642
13,GGGCUUGAAGAAUAACAGATT against BC018222,inactive: -0.64
14,GCCCAGGUCUUGUUGACAATT against B930008A12Rik,inactive: -0.912
15,CCACUAAGGUUUGAAGAAGTT against Nes,inactive: -0.763
16,GGAUCCAGAGAUUCAAUUCTT against Vcam1,inactive: 0.259
17,GAAGAUCUUGAAGCUUACUTT against Commd4,inactive: -0.711
18,GGAUCAAACAAAUCAUCAATT against Plscr4,inactive: 0.419
19,GGUGGUCUACUUCACCGCATT against Xtrp3s1,inactive: 0.383
20,CGCACUGCCUCACUUUGAGTT against Gpr54,inactive: -0.304
21,GGUUUUAGGACACCUGGUUTT against Gys1,inactive: 1.02
22,CCUAUGACUGUAUGUUUUGTT against Hnrpr,inactive: 0.212
23,GGCUAUCAUCAAGAAGGCUTT against 4732497O03Rik,inactive: 0.819
24,GCAUUCCUUGUCUGCUAUUTT against Fgd3,inactive: -1.03
25,GGUGUUUUCACACUGGAAGTT against 2700084L22Rik,inactive: 2.47
26,GGAGUUAAGAAUAACCAAUTT against Epm2aip1,inactive: -1.89

# Quoted from the listing:
# Under z-score, GGUUUUAGGACACCUGGUUTT against Gys1 shows inactive: 1.02
# Under z-score, GGGUUUUGUUUUCCUUCUUTT against Usp39 shows inactive: 2.51
# Under z-score, GGUUUGCAUUGUCGGCCAUTT against Gls2 shows inactive: 0.391
# Under z-score, GGGCUUGAAGAAUAACAGATT against BC018222 shows inactive: -0.64
# Under z-score, GGUGGUCUACUUCACCGCATT against Xtrp3s1 shows inactive: 0.383
# Under z-score, GGAAGAUACUGUGGUUUAUTT against 6530406M24Rik shows inactive: 0.22

# Next results follow.

row,Sequence,z-score
1,GGAAAACCUGCCUAGGAAATT against Rad21,inactive: -1.84
2,GAGUCUUCUCUGCCUGUCUTT against Sprrl1,inactive: -0.404
3,GCAAGUAUGCCAUGAGAUUTT against BC049635,inactive: -0.358
4,GCGUGAGGUCUUGUCAUCATT against Foxn4,inactive: -0.279
5,GGAGCUGUUGAGUGUUUAUTT against Ngly1,inactive: -0.641
6,GGAUUUAUUGACCUCUUAATT against Sp8,inactive: -1.99
7,GGAAUGAGUUCCUUUAAAATT against Svs5,inactive: 0.66
8,GGCCAUCAAGAGUUUCUUUTT against Nr0b1,inactive: -1.38
9,GGCUUACAUUGACAUUAAATT against F5,inactive: 0.782
10,GGAUACCCUGCUUCCAAAATT against Hpd,inactive: -0.578
11,GGUAUCAACAUCACGAUUCTT against Mrgpra1,inactive: -0.112
12,CCUACUGUCUAAGAAUACATT against Olfr1138,inactive: -0.296
13,GAUCUGGCUGCUUCUUACCTT against Porcn,inactive: -0.515
14,GGAAAAUACAAGUCCAUUCTT against B4galt5,inactive: -1.18
15,GGUUGAAAUAGAGAUCAUATT against 9930032O22Rik,inactive: -0.118
16,GGCAUUUGAGAAUAUUGAATT against Casq1,inactive: 2.47
17,GCGAAUCAUUGAGAACGGCTT against Dnajb8,inactive: 0.808
18,GGAUAUUUCAGUUGGCGGGTT against Lama2,inactive: 0.843
19,GGAGGACAACAGCAAAACATT against Atoh1,inactive: 0.755
20,GCAACGUGAUCCCUUCAUUTT against Slc26a7,inactive: -0.599
21,CGCGAGGAAGUCGAGGUAUTT against Pax2,inactive: -0.971
22,GCAUGGAAUCACGAAGUAGTT against BC003993,inactive: -3.1
23,GGAUCACCGGUUUCCGACUTT against Mgst2,inactive: 0.306
24,GCUACUUUGUCCGACUCUATT against Pigt,inactive: -2.03
25,CGACUUCUGUUUAACUUAATT against Wdr26,inactive: -0.257
26,CCGCUUGCUCAUUGUAUCATT against Ruvbl2,inactive: -2.06

row,Sequence,z-score
1,CCUGCCAAAAGUUGUGGAGTT against Uqcrc1,inactive: 0.0563
2,GGAAAAGACAUCAGAUGAATT against Mrpl1,inactive: -1.1
3,GGUGGUGGAGAAGAUAGGATT against Pax8,inactive: 0.516
4,GCUAUUGCCUUACUUUAAGTT against 4930518C23Rik,inactive: -0.107
5,GGACUUAACAGCAACGCAGTT against Ndn,inactive: -1.13
6,CGGUCAGGGUCCUAAAUAUTT against Txnl1,inactive: -1.49
7,CGUGAUCAGACACUUCACCTT against Olfr71,inactive: -0.86
8,GGAAAUACCCUUAUUUGUGTT against Asns,inactive: -1.36
9,GGAGUUUGGCGAAGACCUATT against MGC27742,inactive: -0.917
10,GGCUGACAAUCCCAAUCUATT against 1500031H04Rik,inactive: -0.744
11,GCUGUGACCCUUGUCCUUUTT against 2610009E16Rik,inactive: -0.678
12,GGAGGAUCAAGCAAACUUUTT against A230097C02,inactive: -0.207
13,GGAGAACCGUAACAACAACTT against Cacna1a,inactive: 2.01
14,CCUGAUUCCAAAUGUGUUUTT against Sgcb,inactive: 0.855
15,GGAACAAAAAGUUUCCCUUTT against Dnaja3,inactive: -2.2
16,GGAAUCCACGUUCUAGAUUTT against Ptp4a2,inactive: -0.364
17,GCCAUGUGCACUGAAUAUATT against Gral,inactive: 0.895
18,GCCUUAAUACUCACCAGGGTT against Zfp29,inactive: 0.94
19,GCAUUCAAACUGCUCACGUTT against Suclg2,inactive: -0.401
20,GGAUCACUGCUUACAAACGTT against Icam4,inactive: 0.233
21,GGAGGGAUAUGGAAACAAGTT against D330038O06,inactive: -1.72
22,CCAUGUCUUAGAAGAAGACTT against A730069N07Rik,inactive: -1.58
23,GGCCCUGUUGCUAUGUGUUTT against Bpy2ip1,inactive: 1.2
24,AAUUCUGGACGAGGAGCAUTT against Abcc5,inactive: 0.89
25,GCAUCUCAAGGAUCUUCGGTT against Syngr4,inactive: 0.302
26,CCAUAAUAGAGGCAAUUACTT against BC030477,inactive: -0.127
